Test results from PubChem BioAssay (NCATS).
The shares of active, inactive and inconclusive entries below differ from those in the screen. Potencies of inconclusive entries are doubtful fits and often do not repeat. The source made the active and inactive calls. Calls come from the whole dose curve; as a rule, active = well fitted activation curve with a large enough effect; inconclusive = small, poorly fitted or top-dose-only effect, or another doubt; inactive = no such curve, though single readings can be large or run the other way.

What follows are molecules tested against Rap guanine nucleotide exchange factor 3 (Homo sapiens) (UniProt O95398) (assay: Counterscreen qHTS for agonist of cAMP-regulated guanine nucleotide exchange factor 3 (EPAC1) (AID 1645889; note: nearly all actives have a fitted effect of over 40% in size; for activation: % of control where 0% means no effect)). Settings: EPAC1 Rap1B-BODIPY-GDP exchange, fluorescence; activation: at 154 µM (top of the series) unless noted.
Procedure, shortened: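 Measured: fluorescence of BODIPY-GDP bound to Rap1B, which falls as exchange proceeds. Conditions include 50 uM competing GDP, 5 and 30 min reads, and a later cAMP challenge for antagonist detection.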
Potency is the fitted concentration of half-maximal effect.

Row | SMILES | activation | Potency
1 | Cn1cccc1C(=O)NC(=O)COC(=O)c1cc(S(=O)(=O)N2CCCCC2)ccc1Cl | inconclusive: 17.5% [activator] | 
2 | O=S(=O)(NCc1cn2ccsc2n1)c1cccs1 | inactive: 3.73% [at 30.8 µM] | 
3 | CCCN1C(=O)c2ccccc2NC1c1ccc(OC)cc1OC (stereo not drawn) | inconclusive: 46.1% [activator] | 
4 | COc1cc(NC(=O)C2CCCCC2)c(OC)cc1NC(=O)CN1CCCCC1 | inactive: 11.1% [at 30.8 µM] | 
5 | O=C(c1ccc([N+](=O)[O-])o1)N1CCN(c2nc3c(Cl)cccc3s2)CC1 |  | inconclusive: 0.0079 µM [activator, full curve, poor fit]
6 | CN1OC[C@@H]2CN(C(=O)CCc3ccccc3)[C@H](c3cccc(-c4ccc(C#N)cc4)c3)C[C@@H]21 |  | inconclusive: 17.8 µM [activator, partial curve, poor fit]
7 | CCc1ccccc1Oc1nc(NC(C)C)nc2ccsc12 | inconclusive: 38.9% [activator] [at 30.8 µM] | 
8 | COC(=O)c1cc(NC(=O)CC2C(=O)OCCN2Cc2ccccc2)cc(C(=O)OC)c1 (stereo not drawn) | inconclusive: 55.3% [activator] | 
9 | O=[N+]([O-])c1ccc(N/N=C2/CCCCC2c2ccccn2)cc1 (stereo not drawn) | inactive: -3.04% [at 30.8 µM] | 
10 | CC1(C)CC(=O)c2sc(N3CCCCC3)nc2C1 |  | inactive
11 | CCN(CC(=O)Nc1ccccc1C(F)(F)F)C(=O)c1cc2c(s1)CCCCC2 |  | inconclusive: 17.8 µM [activator, single point]
12 | COc1ccc(/C=N/Nc2ccc(C(=O)O)cc2)cc1Br | inconclusive: 34.3% [activator] | 
13 | COC(=O)c1cc2oc(C)cc2n1Cc1c(C)cc(C)cc1C |  | inconclusive: 39.8 µM [activator, partial curve, poor fit]
14 | Cc1cc(C)cc(NC(=O)N2CCC(CN3CCc4ccccc4C3)CC2)c1 | inconclusive: 44.4% [activator] | 
15 | COc1ccc(C(=O)N(Cc2ccccc2)c2cccc(C)c2)cc1 |  | inactive
16 | CCOC(=O)c1cccc(NC(=O)N2CCC(CN3CCCCCC3)CC2)c1 |  | inconclusive: 14.1 µM [activator, partial curve, poor fit]
17 | COC(=O)C(C)N(C(=O)c1ccc(Cl)cc1)c1c(C)cccc1C (stereo not drawn) |  | inactive
18 | COCCN(CCOC)Cc1cc(=O)oc2cc(C)cc(C)c12 |  | inactive
19 | CCC(=O)OC1CC(C)N(C(=O)c2ccccc2)c2ccc(C)cc21 (stereo not drawn) |  | inactive
20 | Cc1cscc1-c1ccc(C(=O)Nc2c(C)cccc2C)o1 | inconclusive: 59.4% [activator] [at 30.8 µM] | 
21 | C=CCOc1ccc(C2N3CC4(CC)CN2CC(CC)(C3)C4=O)cc1 (stereo not drawn) | inactive: 36.6% [at 30.8 µM] | 
22 | CCn1c(C(=O)N2CCCC(C(=O)N3CCN(c4cc(C)ccc4C)CC3)C2)cc2sccc21 (stereo not drawn) |  | inconclusive: 8.91 µM [activator, full curve]
23 | CC(Oc1ccc(-c2nnco2)cc1)C(=O)N1CCOCC1 (stereo not drawn) | inconclusive: 36.3% [activator] | 
24 | CCCNC(=O)c1ccc2c(=O)c(O)c(-c3ccsc3)[nH]c2c1 | inconclusive: 51.4% [activator] [at 30.8 µM] | 
25 | COc1cc(NC(C)=O)ccc1-c1cc2ccccc2oc1=O | inconclusive: 36.3% [activator] | 
26 | COc1ccc(OC)c(-c2nc3c(C#N)c[nH]n3c2NC2CCCCC2)c1 |  | inconclusive: 28.2 µM [activator, partial curve]
27 | CC1=C(C#N)C(=O)OC(C)(C)C1 | inconclusive: 116% [activator] | 
28 | O=C(COc1ccccc1Br)NCCC1=CCCCC1 | inactive: 20.5% [at 30.8 µM] | 

Ordered by SMILES length (descending): part of the list above
Row | SMILES | activation | Potency
1 | Cn1cccc1C(=O)NC(=O)COC(=O)c1cc(S(=O)(=O)N2CCCCC2)ccc1Cl | inconclusive: 17.5% [activator] | 
9 | O=[N+]([O-])c1ccc(N/N=C2/CCCCC2c2ccccn2)cc1 (stereo not drawn) | inactive: -3.04% [at 30.8 µM] | 
20 | Cc1cscc1-c1ccc(C(=O)Nc2c(C)cccc2C)o1 | inconclusive: 59.4% [activator] [at 30.8 µM] | 
